PubChem BioAssay AID743121 – NCATS | 2013
Purpose: 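Partners whose loss is lethal together with topoisomerase I blockade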 (primary screen). System: MDA-MB-231 cells, a human breast cancer line. Knock-down reagent: single siRNA against human genes, 20 nM siRNA (0.8 pmol per well). Duration: 120 h (drug added 48 h after transfection, read 72 h later). Treatment: camptothecin 20 nM (about EC30) for 72 h; vehicle 0.1% DMSO in parallel plates. Detection: 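Cell viability by ATP luminescence (CellTiter-Glo) as % of non-targeting siRNA wells, and the log2 ratio of viability without drug over viability with camptothecin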. Reading the numbers: log2 vehicle/camptothecin viability: higher = stronger sensitisation to camptothecin; viability with camptothecin: higher = more viable cells. Rule for the call: 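Active genes have an RSA gene-level p-value below 0.001, computed from the ratios of their separate siRNAs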.
The whole screen tested about 26,000 reagents; shown is a part drawn at random. 167 of them (0.63%) were called active. 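Calls are per gene from RSA p-values that are not deposited; an individual active-marked siRNA can sensitise only weakly.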 The numbers tell different reagents against one gene apart. Not all columns of the deposit are shown.

CYP4F3 (cytochrome P450 family 4 subfamily F member 3) #1
- log2 vehicle/camptothecin viability: -0.55
- viability with camptothecin (% of control): 82.6
- outcome: inactive

CYP4F3 (cytochrome P450 family 4 subfamily F member 3) #2
- log2 vehicle/camptothecin viability: 0.126
- viability with camptothecin (% of control): 91.5
- outcome: inactive

CYP4F3 (cytochrome P450 family 4 subfamily F member 3) #3
- log2 vehicle/camptothecin viability: -0.306
- viability with camptothecin (% of control): 72
- outcome: inactive

CYP4F3 (cytochrome P450 family 4 subfamily F member 3) #4
- log2 vehicle/camptothecin viability: -0.0645
- viability with camptothecin (% of control): 70.2
- outcome: inactive

CYP4F3 (cytochrome P450 family 4 subfamily F member 3) #5
- log2 vehicle/camptothecin viability: 0.237
- viability with camptothecin (% of control): 75.5
- outcome: inactive

CYP4F3 (cytochrome P450 family 4 subfamily F member 3) #6
- log2 vehicle/camptothecin viability: -0.0667
- viability with camptothecin (% of control): 86.8
- outcome: inactive

ACKR2 (atypical chemokine receptor 2) #1
- log2 vehicle/camptothecin viability: -0.395
- viability with camptothecin (% of control): 92.5
- outcome: inactive

ACKR2 (atypical chemokine receptor 2) #2
- log2 vehicle/camptothecin viability: 0.224
- viability with camptothecin (% of control): 76.2
- outcome: inactive

ACKR2 (atypical chemokine receptor 2) #3
- log2 vehicle/camptothecin viability: 0.121
- viability with camptothecin (% of control): 71.1
- outcome: inactive

ACKR2 (atypical chemokine receptor 2) #4
- log2 vehicle/camptothecin viability: -0.155
- viability with camptothecin (% of control): 82.1
- outcome: inactive

PDCD10 (programmed cell death 10) #1
- log2 vehicle/camptothecin viability: -0.367
- viability with camptothecin (% of control): 90.3
- outcome: inactive

PDCD10 (programmed cell death 10) #2
- log2 vehicle/camptothecin viability: -0.0618
- viability with camptothecin (% of control): 85.5
- outcome: inactive

PDCD10 (programmed cell death 10) #3
- log2 vehicle/camptothecin viability: -0.379
- viability with camptothecin (% of control): 90.7
- outcome: inactive

PDCD10 (programmed cell death 10) #4
- log2 vehicle/camptothecin viability: -0.318
- viability with camptothecin (% of control): 85.5
- outcome: inactive

IL20 (interleukin 20) #1
- log2 vehicle/camptothecin viability: 0.000539
- viability with camptothecin (% of control): 96.9
- outcome: inactive

IL20 (interleukin 20) #2
- log2 vehicle/camptothecin viability: -0.086
- viability with camptothecin (% of control): 87.7
- outcome: inactive

IL20 (interleukin 20) #3
- log2 vehicle/camptothecin viability: -0.178
- viability with camptothecin (% of control): 78.8
- outcome: inactive

IL20 (interleukin 20) #4
- log2 vehicle/camptothecin viability: -0.412
- viability with camptothecin (% of control): 30.9
- outcome: inactive

GPLD1 (glycosylphosphatidylinositol specific phospholipase D1) #1
- log2 vehicle/camptothecin viability: -0.231
- viability with camptothecin (% of control): 90.4
- outcome: inactive

GPLD1 (glycosylphosphatidylinositol specific phospholipase D1) #2
- log2 vehicle/camptothecin viability: 0.347
- viability with camptothecin (% of control): 63.3
- outcome: inactive

GPLD1 (glycosylphosphatidylinositol specific phospholipase D1) #3
- log2 vehicle/camptothecin viability: 0.189
- viability with camptothecin (% of control): 63.5
- outcome: inactive

GPLD1 (glycosylphosphatidylinositol specific phospholipase D1) #4
- log2 vehicle/camptothecin viability: -0.536
- viability with camptothecin (% of control): 75.1
- outcome: inactive

CYCS (cytochrome c, somatic) #1
- log2 vehicle/camptothecin viability: -0.339
- viability with camptothecin (% of control): 87.9
- outcome: inactive

CYCS (cytochrome c, somatic) #2
- log2 vehicle/camptothecin viability: -0.624
- viability with camptothecin (% of control): 103
- outcome: inactive

CYCS (cytochrome c, somatic) #3
- log2 vehicle/camptothecin viability: 0.0915
- viability with camptothecin (% of control): 41.9
- outcome: inactive

CYCS (cytochrome c, somatic) #4
- log2 vehicle/camptothecin viability: -0.184
- viability with camptothecin (% of control): 82.7
- outcome: inactive

CYCS (cytochrome c, somatic) #5
- log2 vehicle/camptothecin viability: -0.337
- viability with camptothecin (% of control): 54.9
- outcome: inactive

KCNH6 (potassium voltage-gated channel subfamily H member 6) #1
- log2 vehicle/camptothecin viability: -0.0855
- viability with camptothecin (% of control): 97.4
- outcome: inactive

KCNH6 (potassium voltage-gated channel subfamily H member 6) #2
- log2 vehicle/camptothecin viability: -0.195
- viability with camptothecin (% of control): 34.7
- outcome: inactive

KCNH6 (potassium voltage-gated channel subfamily H member 6) #3
- log2 vehicle/camptothecin viability: -0.557
- viability with camptothecin (% of control): 45.9
- outcome: inactive

ALDH6A1 (aldehyde dehydrogenase 6 family member A1) #1
- log2 vehicle/camptothecin viability: 0.421
- viability with camptothecin (% of control): 55.5
- outcome: inactive

ALDH6A1 (aldehyde dehydrogenase 6 family member A1) #2
- log2 vehicle/camptothecin viability: -0.211
- viability with camptothecin (% of control): 104
- outcome: inactive

ALDH6A1 (aldehyde dehydrogenase 6 family member A1) #3
- log2 vehicle/camptothecin viability: -0.297
- viability with camptothecin (% of control): 46.4
- outcome: inactive

ALDH6A1 (aldehyde dehydrogenase 6 family member A1) #4
- log2 vehicle/camptothecin viability: 0.18
- viability with camptothecin (% of control): 60.1
- outcome: inactive

GABRR2 (gamma-aminobutyric acid type A receptor subunit rho2) #1
- log2 vehicle/camptothecin viability: -0.15
- viability with camptothecin (% of control): 120
- outcome: inactive

GABRR2 (gamma-aminobutyric acid type A receptor subunit rho2) #2
- log2 vehicle/camptothecin viability: -0.186
- viability with camptothecin (% of control): 103
- outcome: inactive

GABRR2 (gamma-aminobutyric acid type A receptor subunit rho2) #3
- log2 vehicle/camptothecin viability: 0.567
- viability with camptothecin (% of control): 26
- outcome: inactive

GABRR2 (gamma-aminobutyric acid type A receptor subunit rho2) #4
- log2 vehicle/camptothecin viability: -0.13
- viability with camptothecin (% of control): 87.9
- outcome: inactive

6 consecutive reagents from above:
ACKR2 (atypical chemokine receptor 2) #4
- log2 vehicle/camptothecin viability: -0.155
- viability with camptothecin (% of control): 82.1
- outcome: inactive

PDCD10 (programmed cell death 10) #1
- log2 vehicle/camptothecin viability: -0.367
- viability with camptothecin (% of control): 90.3
- outcome: inactive

PDCD10 (programmed cell death 10) #2
- log2 vehicle/camptothecin viability: -0.0618
- viability with camptothecin (% of control): 85.5
- outcome: inactive

PDCD10 (programmed cell death 10) #3
- log2 vehicle/camptothecin viability: -0.379
- viability with camptothecin (% of control): 90.7
- outcome: inactive

PDCD10 (programmed cell death 10) #4
- log2 vehicle/camptothecin viability: -0.318
- viability with camptothecin (% of control): 85.5
- outcome: inactive

IL20 (interleukin 20) #1
- log2 vehicle/camptothecin viability: 0.000539
- viability with camptothecin (% of control): 96.9
- outcome: inactive
